Reference: patent US20170290821A1 (priority 2014, published 2017)

Assay: Cytotoxicity test (Cell Counting Kit-8), HEK293
Assay type: cell-based
Conditions: human, HEK293 cells, 293 (HEK293) cells, read-out: CC50 (50% cytotoxicity concentration)
Experimental: First, as test compound solutions, test compounds were prepared in 1% dimethylsulfoxide-containing MEMs so that a final concentration was 1000, 100, 10, 1, 0.1, 0.01, or 0.001 μM.
Cell fluids in which MDCK cells, A549 cells, and HEK293 cells were prepared at concentrations of 6.25×10^5 cells/mL, 2.5×10^6 cells/mL, and 1.25×10^5 cells/mL in minimum essential mediums (MEMs) were added to a 96-well plate at 0.1 ml/well and the cells were seeded. The cells in the 96-well plate were cultured in a carbon dioxide incubator at 37° C. and washed with MEM the day after the seeding date. In the washed cells in the 96-well plate, 0.1 mL of each test compound solution was added to three wells for each concentration and the cells in the 96-well plate were then cultured in a carbon dioxide incubator at 37° C. for 48 hours. After the culture, a Cell Counting Kit-8 solution (commercially available from Dojindo Molecular Technologies, Inc.) was added to each well at 10 μL and culture was additionally performed at 37° C. for several hours. After the culture, an absorbance at 450 nm of a solution of each well in the 96-well plate was measured using a microplate reader. An absorbance value when a solvent (1% dimethylsulfoxide-containing MEM) was added in place of the test compound was set to 100% at which the whole cells survived. […]

## C[C@@H]1CCN(C(=O)CC#N)C[C@@H]1N(C)c1ncnc2[nH]ccc12 [Compound J1, 3-((3R,4R)-4-methyl-3-(methyl(7H-pyrrolo[2,3-d]pyrimidin-4-yl)amino)piperidin-1-yl)-3-oxopropanenitrile]
  CC50 at 48 h: > 316 µM
